Results: patent US6797467B1, “Compositions and methods for determining interactions of mitochondrial components, and for identifying agents that alter such interactions” (MitoKor, Inc., priority 1999, dated 2004)
Results are given in words; binding and its absence hold for the method and conditions named. Some binding calls cover weakened binding; strength is not graded here. Sequences can lack the tags named with a protein.

Amino acid sequences for entries named in this document (tags omitted). A change or cut given only in a name is not applied to a line headed by its entry.
UniProt P30405: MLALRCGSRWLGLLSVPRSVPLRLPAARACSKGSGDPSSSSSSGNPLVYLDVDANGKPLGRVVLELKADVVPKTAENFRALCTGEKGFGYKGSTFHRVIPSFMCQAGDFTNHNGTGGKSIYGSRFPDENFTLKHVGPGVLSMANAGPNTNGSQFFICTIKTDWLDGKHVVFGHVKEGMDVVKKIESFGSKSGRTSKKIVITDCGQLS

What was measured:
[1] = target: T1, His-tagged, XPRESS epitope-containing recombinant human ANT3 (huANT3) expressed in baculovirus-infected T. ni cells (pMK4B-huANT3) (human) (UniProt P12236); experiment: pull-down on nickel agarose beads carrying His-tagged huANT3, western blot with anti-GST
T1 sequence: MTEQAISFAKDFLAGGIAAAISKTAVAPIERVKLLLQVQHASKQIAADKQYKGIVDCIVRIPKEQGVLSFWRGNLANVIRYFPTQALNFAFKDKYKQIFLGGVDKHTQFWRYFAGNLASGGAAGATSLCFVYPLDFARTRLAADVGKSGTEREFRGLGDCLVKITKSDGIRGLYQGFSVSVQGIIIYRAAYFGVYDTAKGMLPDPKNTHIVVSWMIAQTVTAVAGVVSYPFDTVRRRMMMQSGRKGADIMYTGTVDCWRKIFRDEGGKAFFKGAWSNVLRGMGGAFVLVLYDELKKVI

[2] = target: T1, His-tagged, XPRESS epitope-containing recombinant human ANT3 (huANT3) expressed in baculovirus-infected T. ni cells (pMK4B-huANT3) (human); experiment: co-sedimentation with submitochondrial particles of T. ni cells expressing His-tagged huANT3 (1 mg SMP, 2.6 uM GST-CypD), western blot with anti-CypD antiserum
[3] = target: T1, His-tagged, XPRESS epitope-containing recombinant human ANT3 (huANT3) expressed in baculovirus-infected T. ni cells (pMK4B-huANT3) (human); experiment: pull-down on nickel agarose beads carrying His-tagged huANT3, EDTA elution, western blot with anti-GST
[4] = target: T1, His-tagged, XPRESS epitope-containing recombinant human ANT3 (huANT3) expressed in baculovirus-infected T. ni cells (pMK4B-huANT3) (human); experiment: co-sedimentation with proteoliposomes reconstituted with huANT3 and bacteriorhodopsin, western blot with anti-CypD antibodies; inhibited by cyclosporin A

Measured: binding

GST-CypD fusion protein (glutathione S-transferase fused to human cyclophilin D, expressed from pMK12-GST-huCypD) (from UniProt P30405 30-207)
binds: all assays above
